Screen size: about 580,000 compounds; about 6,100 (1.1%) were called active. Inconclusive means that the source gave no clear call. Such entries were picked first, then a sample of the others. Calls follow the shape of the dose curve; as a rule, active = well fitted inhibition curve with a large enough effect; inconclusive = small, poorly fitted or top-dose-only effect, or another doubt; inactive = no such curve, though single readings can be large or run the other way. Where the call is inconclusive, the potency comes from a doubtful curve fit.
target: Polyunsaturated fatty acid lipoxygenase ALOX12 (Homo sapiens) (UniProt P18054); assay: Primary qHTS assay for inhibitors of human arachidonate 12S-lipoxygenase (ALOX12): Round 2; settings: purified 12hLO, xylenol orange hydroperoxide absorbance; activity change, negative = inhibition: at 108 µM (top of the series) unless noted
Procedure, shortened: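 Hydroperoxide product was detected by ferrous iron/xylenol orange as the 573 to 405 nm absorbance ratio. Arachidonic acid at 40 uM (final) was turned over for 30 min at room temperature by 150 nM human 12hLO, pH 7.0 Hepes buffer, after 15 min compound preincubation.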
% is scaled to controls: 0 for no effect and ±100 for the full control effect; potency is read from the fitted curve at half-maximal effect.

Chains of the proteins cited; added tags and fusions are not shown. Lines headed by an entry give the natural chain unless they say otherwise; changes in a name come on top.
UniProt P18054: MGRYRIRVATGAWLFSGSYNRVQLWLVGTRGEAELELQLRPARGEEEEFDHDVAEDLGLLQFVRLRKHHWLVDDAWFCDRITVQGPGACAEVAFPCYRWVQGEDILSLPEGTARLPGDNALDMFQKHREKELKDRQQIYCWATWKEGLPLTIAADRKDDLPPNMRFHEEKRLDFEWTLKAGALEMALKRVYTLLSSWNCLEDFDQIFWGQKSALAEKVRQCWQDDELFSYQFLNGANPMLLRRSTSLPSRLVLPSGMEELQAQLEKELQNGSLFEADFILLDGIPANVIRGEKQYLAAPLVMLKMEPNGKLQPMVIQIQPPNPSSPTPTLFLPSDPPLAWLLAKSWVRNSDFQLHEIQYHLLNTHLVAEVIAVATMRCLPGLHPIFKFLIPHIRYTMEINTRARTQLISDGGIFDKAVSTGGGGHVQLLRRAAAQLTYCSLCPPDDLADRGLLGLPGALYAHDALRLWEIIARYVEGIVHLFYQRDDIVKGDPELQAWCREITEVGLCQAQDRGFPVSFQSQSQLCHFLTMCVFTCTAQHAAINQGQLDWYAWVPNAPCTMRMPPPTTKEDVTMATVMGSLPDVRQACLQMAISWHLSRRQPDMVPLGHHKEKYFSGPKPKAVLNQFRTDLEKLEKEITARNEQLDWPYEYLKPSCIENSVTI

SMILES | activity change, negative = inhibition | Potency
CC(C)CC(NC(=O)Cc1n[nH]c(=O)c2ccccc12)c1ccccc1 (stereo not drawn) | inactive: 4.51% | –
O=C(Nc1cc(Cl)cc(Cl)c1)N1CCCN(Cc2ccccc2)CC1 | – | inconclusive: 126 µM [inhibitor, single point]
Cc1ccc(S(=O)(=O)N2CCC(C(=O)OC(C)C(=O)N3CCCCCC3)CC2)cc1C (stereo not drawn) | inactive: 7.01% | –
Cc1nc(N/N=C\c2ccc3c(c2)OCO3)sc1C | – | inconclusive: 79.4 µM [inhibitor, partial curve, poor fit]
O=C(O)C(Cc1c[nH]c2ccccc12)NS(=O)(=O)c1cccc2nsnc12 (stereo not drawn) | – | inconclusive: 63.1 µM [inhibitor, partial curve, poor fit]
N#Cc1nc(Cc2cccc3ccccc23)oc1NCc1ccc(F)cc1 | – | inconclusive: 22.4 µM [inhibitor, single point]
COc1ccccc1C(=O)N1CC[C@H]2COC(=O)N2c2ccccc2C1 | inactive: -0.902% [at 176 µM] | –
COc1cc(CN(C)CC(=O)N2c3ccccc3NC(=O)CC2C)ccc1OC(F)F (stereo not drawn) | inactive: 6.24% | –
Cc1ccccc1C(=O)NNC(=S)NC(=O)c1cccnc1 | – | inconclusive: 28.2 µM [inhibitor, partial curve, poor fit]
Cc1ccc(NS(=O)(=O)c2cc3c(cc2Br)NC(=O)CO3)cc1C | – | inconclusive: 89.1 µM [inhibitor, partial curve, poor fit]
NC(=O)CC(NC(=O)Cc1cccc2ccccc12)c1ccc(NC2CC3CCC2C3)c([N+](=O)[O-])c1 (stereo not drawn) | – | inconclusive: 50.1 µM [inhibitor, partial curve, poor fit]
O=C(Cc1ccc(F)cc1)N1CCOCC2(CN(Cc3ccccc3)C2)C1 | – | inconclusive: 31.6 µM [inhibitor, full curve]
COc1ccc(-c2c(C#N)c(SCC(=O)Nc3ccc(Br)cc3)nc(C)c2C(=O)Nc2ccccc2)cc1 | – | inconclusive: 50.1 µM [inhibitor, partial curve, poor fit]
Cn1c2c(c(=O)n(C)c1=O)C(c1ccc(Br)cc1)C(C#N)=C(N)N2 (stereo not drawn) | – | inconclusive: 35.5 µM [inhibitor, single point]
O=C(CN(c1cc(C(F)(F)F)ccc1Cl)S(=O)(=O)c1ccccc1)NCCc1ccccc1 | – | inconclusive: 44.7 µM [inhibitor, partial curve, poor fit]
O=C(NCCCc1ccccc1)C1CCCN(C(=O)Cc2c[nH]c3ccccc23)C1 (stereo not drawn) | inactive: 2.89% | –
Cc1cccc2cc(C(c3nnnn3C(C)(C)C)N3CCN(C(=O)c4ccco4)CC3)c(=O)[nH]c12 (stereo not drawn) | inactive: 16.6% | –
Cc1cc(C(=O)NC(=S)Nc2ccccc2N2CCOCC2)ccc1[N+](=O)[O-] | – | active: 28.2 µM
CSc1ccc(CNCc2ccc3c(c2)OCO3)cc1 | – | inconclusive: 1.26 µM [inhibitor, full curve]
CCOC(=O)C(NC(=O)CC)(Nc1nc2c(s1)CCCC2)C(F)(F)F (stereo not drawn) | – | inconclusive: 44.7 µM [inhibitor, partial curve, poor fit]
OC(CN1CCN(c2cccc(Cl)c2)CC1)C(c1ccccc1)c1ccccc1 (stereo not drawn) | – | inconclusive: 50.1 µM [inhibitor, single point]

SMILES | activity change, negative = inhibition | Potency
COc1ccc([C@H]2N[C@]3(CCCN(Cc4ccc(F)cc4)C3=O)[C@H]3C(=O)N(Cc4ccccc4)C(=O)[C@@H]23)cc1 | – | active: 35.5 µM
CCc1cccc2c(C(CC(=O)NCCc3ccc(OC)c(OC)c3)c3cccc(F)c3)c[nH]c12 (stereo not drawn) | – | inconclusive: 25.1 µM [inhibitor, full curve]
CN(C)C(=O)c1ccc(-c2nccc(NCc3cccnc3)n2)cc1 | – | inconclusive: 6.31 µM [inhibitor, full curve, poor fit]
Cc1ccc(-n2nnnc2SCC(=O)c2cc(C)n(-c3cc(C)on3)c2C)c(C)c1 | – | inconclusive: 31.6 µM [inhibitor, partial curve, poor fit]
OC(c1ccccc1)(C1CCCCC1)C(CN1CCOCC1)c1ccccc1 (stereo not drawn) | – | inconclusive: 44.7 µM [inhibitor, partial curve, poor fit]
Cn1c(CCNC(=O)c2ccc(F)cc2)nc2ccccc21 | – | inconclusive: 22.4 µM [inhibitor, partial curve, poor fit]
C#CCOCCOCCOCCNc1nc(N2CCN(C(=O)C([C@@H](C)CC)n3cc(C(N)Cc4ccc(O)cc4)nn3)CC2)nc(N2CCN(C(=O)[C@H](CCC(=O)O)n3cc(C(N)CC(C)C)nn3)CC2)n1 (stereo partly drawn) | inactive: -2.21% | –
Nc1cccc(-c2nnc3n2CCCCC3)c1 | inactive: -2.43% | –
O=C(NCCNc1ccccc1[N+](=O)[O-])c1cc(F)c(F)cc1Cl | – | inconclusive: 112 µM [inhibitor, single point]
O=C(NCCc1ccccc1)C1CCCN1C(=O)Nc1ccc(F)cc1 (stereo not drawn) | – | inconclusive: 112 µM [inhibitor, partial curve, poor fit]
CCNc1nnc(SCc2nc(-c3ccc(F)cc3)no2)s1 | inactive: -11.3% | –
CCN(CC(=O)Nc1c(F)cccc1F)C(=O)c1ccc(C2SCCS2)cc1 | inactive: 10.4% | –
C[S+](=O)([O-])N1Cc2ccccc2CC12CN(C(=O)c1ccccc1F)C2 | inactive: 0.857% | –
COc1ccc(-n2c(=O)c(CCc3ccccc3)nc3cnc(N4CCNCC4)nc32)cc1 | inactive: -24% | –
O=C(CSc1nnc(-c2ccco2)o1)NC(=O)Cc1ccccc1 | – | inconclusive: 20 µM [inhibitor, partial curve, poor fit]
CC(O)CN(Cc1cccc(Cl)c1)CC(C)O (stereo not drawn) | – | inconclusive: 1.26 µM [inhibitor, full curve, poor fit]
COc1cccc(SCC(=O)c2ccc3c(c2)NC(=O)CO3)c1 | – | inconclusive: 35.5 µM [inhibitor, partial curve, poor fit]
CN(C)c1nc(C2CC(N)C2)cc(N(C)Cc2cnn(C)c2)n1 (stereo not drawn) | inactive: 41.5% | –
Cc1ccc(N2CCN(C(=O)C3CCC(=O)N(Cc4ccc(Cl)cc4)C3)CC2)c(C)c1 (stereo not drawn) | – | inconclusive: 44.7 µM [inhibitor, partial curve, poor fit]
c1ccc(CN2c3ccccc3-c3nc4ccccc4n3C2c2ccccn2)cc1 (stereo not drawn) | – | inconclusive: 35.5 µM [inhibitor, single point]
CCOc1ccc(C(=O)Cc2ccc3oc(C(=O)O)cc3c2)c(O)c1 | – | inconclusive: 15.8 µM [inhibitor, partial curve]

SMILES | activity change, negative = inhibition | Potency
O=c1[nH][nH]c2cc(=O)n(-c3cccc(C(F)(F)F)c3)nc12 | – | inconclusive: 70.8 µM [inhibitor, partial curve, poor fit]
O=C(CCCc1nc(-c2ccccc2)no1)Nc1cc(C(F)(F)F)cc(C(F)(F)F)c1 | inactive: -19.4% | –
Cc1ccc(S(=O)(=O)Nc2cc(C(N)=O)cc(F)c2C)cc1Cl | inactive: -37.6% | –
Cc1ccc(-c2nc3c(Cl)cc(C(F)(F)F)cn3c2Cc2cccc(F)c2)cc1 | – | inconclusive: 50.1 µM [inhibitor, partial curve, poor fit]
CCN(Cc1ccccc1)S(=O)(=O)c1ccc(C(=O)N(CCCN(C)C)c2nc3cc(OC)ccc3s2)cc1 | – | inconclusive: 50.1 µM [inhibitor, partial curve, poor fit]
COC[C@@H]1CN(C(=O)c2c(C)noc2C)C[C@H]1c1ccncc1 | inactive: -1.88% | –
C[N+]1(CC(=O)OCCCc2ccccc2)CCCCC1 | – | inconclusive: 44.7 µM [inhibitor, partial curve, poor fit]
Cc1sc(N)nc1-c1c(C)n(C)c2ccccc12 | – | inconclusive: 39.8 µM [inhibitor, single point]
COc1ccccc1Cc1nccc(C2(c3ccccc3Cl)CCNCC2)n1 | – | inconclusive: 14.1 µM [inhibitor, full curve, poor fit]
CCCOC(=O)C[N+](C)(C)CCOC1CC2CCC1(C)C2(C)C (stereo not drawn) | – | inactive
CCCNC(=O)N(C)C[C@H]1Oc2ncc(C#CCc3ccccc3)cc2C(=O)N([C@H](C)CO)C[C@H]1C | – | inconclusive: 56.2 µM [inhibitor, partial curve, poor fit]
CC(/C=N/n1c(COc2ccccc2)n[nH]c1=S)=C\c1ccco1 | – | inconclusive: 50.1 µM [inhibitor, partial curve, poor fit]
CC1(C)CC(=O)C2=C(C1)OC(N)=C(C#N)C2c1cccc(Oc2ccccc2)c1 (stereo not drawn) | – | inconclusive: 11.2 µM [inhibitor, partial curve, poor fit]
Cc1ccc(-c2cc(-c3ccccc3Cl)[nH]n2)c(O)c1 | – | inconclusive: 39.8 µM [inhibitor, partial curve, poor fit]
Cn1c(=O)c2c(nc(NCc3ccco3)n2Cc2c(Cl)cccc2Cl)n(C)c1=O | – | inconclusive: 100 µM [inhibitor, single point]
CC(=O)NCc1ccc(-c2csc(Nc3cc(C)cc(C)c3)n2)o1 | – | inconclusive: 5.62 µM [inhibitor, full curve, poor fit]
COc1ccc(Sc2cccc(Cl)c2)c(C(=O)O)c1 | – | inconclusive: 112 µM [inhibitor, single point]
CCN(CC)S(=O)(=O)c1cccc(NC(=S)NC(=O)/C=C/c2ccc(S(=O)(=O)N3CCOCC3)cc2)c1 | – | inconclusive: 20 µM [inhibitor, full curve]
COc1ccc(CN2CCC3(COc4ccccc4C(=O)N3)C2)cc1 (stereo not drawn) | – | inconclusive: 35.5 µM [inhibitor, full curve]
Cc1cc(OC(=O)c2cccc(C)c2C)ccc1C(C)C | inactive: 1.12% | –
O=C(O)c1ccc(Cl)c(NC(=O)C2CCCN2S(=O)(=O)c2cccc3nsnc23)c1 (stereo not drawn) | – | inconclusive: 6.31 µM [inhibitor, full curve]

4 successive entries from above:
SMILES | activity change, negative = inhibition | Potency
C[N+]1(CC(=O)OCCCc2ccccc2)CCCCC1 | – | inconclusive: 44.7 µM [inhibitor, partial curve, poor fit]
Cc1sc(N)nc1-c1c(C)n(C)c2ccccc12 | – | inconclusive: 39.8 µM [inhibitor, single point]
COc1ccccc1Cc1nccc(C2(c3ccccc3Cl)CCNCC2)n1 | – | inconclusive: 14.1 µM [inhibitor, full curve, poor fit]
CCCOC(=O)C[N+](C)(C)CCOC1CC2CCC1(C)C2(C)C (stereo not drawn) | – | inactive

— PubChem BioAssay AID1671190 (National Center for Advancing Translational Sciences (NCATS), 2021)
